Here are results for 23 sequences from paper PMC7819943, “Rice protein-binding microarrays: a tool to detect cis-acting elements near promoter regions in rice”.

Some of the results follow.

This assay concerns the target T1, OsSMF1 (Oryza sativa, UniProt Q6ZLB0 1-436).
T1 sequence: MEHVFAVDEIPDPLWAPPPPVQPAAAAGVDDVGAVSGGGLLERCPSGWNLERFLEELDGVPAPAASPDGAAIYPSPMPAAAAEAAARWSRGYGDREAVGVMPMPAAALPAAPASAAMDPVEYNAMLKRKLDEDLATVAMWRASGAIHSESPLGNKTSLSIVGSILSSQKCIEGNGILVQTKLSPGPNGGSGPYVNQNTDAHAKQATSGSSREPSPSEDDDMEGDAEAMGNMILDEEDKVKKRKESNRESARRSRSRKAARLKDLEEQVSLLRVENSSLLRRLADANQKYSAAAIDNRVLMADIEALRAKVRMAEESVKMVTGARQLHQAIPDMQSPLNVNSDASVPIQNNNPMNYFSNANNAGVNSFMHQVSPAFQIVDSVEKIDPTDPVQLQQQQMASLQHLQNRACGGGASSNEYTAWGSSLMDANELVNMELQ
Put plainly: protein-binding microarray (RPBM); PBS, 2% BSA, 51.3 ng/ul salmon testes DNA, 50 uM zinc acetate, 200 nM TF, 25 C, 1 h; high values mean tight binding. To be noted: protein: recombinant; tags: N-terminal polyhistidine and DsRed monomer fusion (pET32a); chain copies: 2; label: CyDye5-dUTP incorporated in the synthesized complementary strand; 3' TTTTT single-stranded linker to array surface; dsDNA, one strand shown. Put shortly:
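Transcription factors, each fused N-terminally to a polyhistidine tag and DsRed, were expressed in E. coli BL21-CodonPlus and purified on Ni–NTA. A custom Agilent array was made double-stranded by primer extension with Cy5-dUTP and blocked with 2% BSA. It was incubated with 200 nM protein in PBS, 2% BSA, salmon testes DNA and 50 µM zinc acetate at 25 °C for 1 h, then washed. The binding signal is per-feature fluorescence intensity (arbitrary units) read on an Axon 4000B scanner.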
As for “CTCGGCATCCGCATCCGCGCGACGACGACGACGAGGAGGACGGAGTCACCTAGTGCAG”, the binding signal is 8090 fluorescence intensity (a.u.). Under “CCCTGATGACATGGCAATCTAGTTTCATTGAATCTAGGAGCGGAGTCACCTAGTGCAG” stands 12100 fluorescence intensity (a.u.). Take “GGGCTCTCCGCTCCTCCGCCGCATCATGTTGTGGAGCTCCCGGAGTCACCTAGTGCAG”: the binding signal was 3950 fluorescence intensity (a.u.).

In the case of “TACTATATTGTTTGGTATTTGCAGGTTCACGTGTCAAAGTCGGAGTCACCTAGTGCAG”, the binding signal is 4140 fluorescence intensity (a.u.). Under “ATCCGTCCGTTTCGTTCCGTACGAACCGCCGGCGTTCAAACGGAGTCACCTAGTGCAG” stands 3250 fluorescence intensity (a.u.); under “ATAAAGTGATTTTCGGTTGTGATGATGCGGTCTATATATACGGAGTCACCTAGTGCAG”, 4260 fluorescence intensity (a.u.); under “TTACCAGATTAATATTAATGTAATCCGTGTGTCAGCAGGCCGGAGTCACCTAGTGCAG”, 6760 fluorescence intensity (a.u.). Regarding “AAAGAACCCAAGTGTATAGAAGTACACGTCTAACCGGTGTCGGAGTCACCTAGTGCAG”, the binding signal was 3230 fluorescence intensity (a.u.).

As for “GACATAAAGATTTACCCAGCTTTATTTAGTAAGCTTAGTGCGGAGTCACCTAGTGCAG”, the binding signal was 4710 fluorescence intensity (a.u.).

On to “TAAAGTTGTTCTCCCAAGTTGCTGTATTTTAAAATATCCACGGAGTCACCTAGTGCAG”, for which the binding signal is 16100 fluorescence intensity (a.u.). For the sequence “GTAAAACTTTTATATATTTGTTCGTAGCGACTTGAAAGCCCGGAGTCACCTAGTGCAG”, the binding signal is 3420 fluorescence intensity (a.u.). Under “CCATTTGTACCAACTCATGATCGTCTTATCTTAGGACCTGCGGAGTCACCTAGTGCAG” stands 3160 fluorescence intensity (a.u.); under “ACAAACCGTCGGCCGCGCACTCCACCCCGTTCGCTCCTCTCGGAGTCACCTAGTGCAG”, 3140 fluorescence intensity (a.u.). Under “TACATTGCCACATACGATAGGCTTTTACTCCTTCATTAAACGGAGTCACCTAGTGCAG” stands 3600 fluorescence intensity (a.u.). Under “TAACATCGATTTTATGTTGATCACACACGTCACAGGTGGTCGGAGTCACCTAGTGCAG” stands 10400 fluorescence intensity (a.u.); under “CGTTGAGCGCGCGCGTGTCCGGCGGGACACCCTCCTCCAGCGGAGTCACCTAGTGCAG”, 3700 fluorescence intensity (a.u.); under “GAGCTTCTAAACATTGGTCATTGGCAGTAAATAGTGCAGACGGAGTCACCTAGTGCAG”, 28900 fluorescence intensity (a.u.). In the case of “TGCAAACACCTGCACATCACTACGCCGACAGCTTAAAATTCGGAGTCACCTAGTGCAG”, the binding signal is 3890 fluorescence intensity (a.u.). The result for “TCGTGAGGTCTATACAAATTTTGTCCTGTTTTCCCATCTGCGGAGTCACCTAGTGCAG” reads 3170 fluorescence intensity (a.u.). The result for “CCTCCTCGTCAGTTTGCCCTTGTCCACCGCCTCCGCCTCCCGGAGTCACCTAGTGCAG” reads 3510 fluorescence intensity (a.u.); that for “ACGACTAGGATTCGCTGACACGTGGAAGATCGTTTAACTCCGGAGTCACCTAGTGCAG”, 11600 fluorescence intensity (a.u.); that for “AAGTACGCTGCCGCCGCTGACATCACCCTCCCTAACCCGGCGGAGTCACCTAGTGCAG”, 11000 fluorescence intensity (a.u.).

For the sequence “GTATTTGGTTGGTCACCAACAAATTTCGTTCATGGCTACACGGAGTCACCTAGTGCAG”, the binding signal was 3980 fluorescence intensity (a.u.).
